# Data: PubChem BioAssay AID493014 (National Center for Advancing Translational Sciences (NCATS), 2011)
# Some of the results follow. These are further read-outs of the screen, such as a control signal, another cell line or another target. No call is given for them. Most of these compounds were active or inconclusive in the main read-out, so they are no random draw. Potencies come from curve fits of mixed quality, noted in brackets.
# Assay: qHTS Assay to Find Inhibitors of Chronic Active B-Cell Receptor Signaling
# Details: ABC-DLBCL IkBa-CBG/CBR reporter, luminescence ratio (green luciferase fused to IkBa over red control in TMD8 lymphoma cells), 4 h
# Procedure, shortened: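 Doxycycline induced both beetle luciferases in TMD8 lymphoma cells; IKK-driven degradation limits the IkappaBalpha-fused green signal, while red luminescence normalises for cell number and nonspecific effects. Compounds tested up to 46 uM, 4 hrs.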
# [1] = measured here: CBR red luminescence, cell number
# [2] = measured here: IkBa-CBG green luminescence
SMILES,AC50 [1],AC50 [2]
CCOC(=O)N1C/C(=C\c2ccccc2)C(=O)/C(=C/c2ccccc2)C1,"0.224 µM [falling, full curve, poor fit]",
COc1ccccc1CCC(=O)NNC(=O)c1cccs1,"9.2 µM [falling, partial curve, poor fit]",
O=C1CSC(=S)N1/N=C/c1cc(Br)c(O)c(Br)c1,"14.1 µM [rising, partial curve, poor fit]",
Cc1ccc(NC2=C(Cl)C(=O)OC2OC(=O)c2ccccc2)c(C)c1 (stereo not drawn),"11.2 µM [falling, single point]",
CC(=O)Nc1nc(C=C(Cl)Cl)cs1,"0.82 µM [rising, full curve, poor fit]",
Cn1nc(C(=O)Nc2ccc3c(c2)OCCO3)c2ccccc2c1=O,"1.64 µM [rising, partial curve, poor fit]",
O=C(NCc1ccc2c(c1)OCO2)c1ccc2c(c1)N(Cc1ccccc1F)C(=O)c1ccccc1S2,"35.5 µM [rising, partial curve, poor fit]",
Cc1cc(C(=O)NN=Cc2ccc(OC(=O)c3ccco3)cc2)c(C)o1,"9.2 µM [falling, partial curve]",
CCCn1cnc2cc(NC(=O)c3ccco3)ccc21,"3.16 µM [falling, single point]",
CCC(=O)C1=C(c2ccc(F)cc2)N(C(=O)CC)n2cnnc2S1,"35.5 µM [rising, single point]","35.5 µM [falling, single point]"
CCOC(=O)CSc1ccc2ccccc2n1,"2.24 µM [rising, partial curve, poor fit]",
CC1CCC(NC(=O)c2cccc(S(=O)(=O)N3CCN(C)CC3)c2)CC1 (stereo not drawn),"0.164 µM [rising, full curve, poor fit]",
CC(C)(C)c1nnc2sc(SCC(=O)N3CCCc4ccccc43)nn2c1=O,"7.08 µM [falling, partial curve]",
CC(C)Nc1nc2ccccc2c(=O)[nH]1,"22.4 µM [falling, single point]",
O=C(NCC(O)c1ccccc1)c1ccccc1 (stereo not drawn),"7.08 µM [falling, partial curve]",
CCn1c(-c2nonc2NC(=O)c2ccccc2)nc2ccccc21,"0.0891 µM [falling, full curve, poor fit]",
COc1ccc(OCc2nnc3n2N=C(c2ccccc2)C(CC(=O)O)S3)cc1 (stereo not drawn),"6.31 µM [rising, single point]",
Cc1ccc2c(c1)N(C(=O)CCC(=O)NCCCN1CCC(Cc3ccccc3)CC1)CCO2,"8.91 µM [falling, partial curve]",
COc1ccc(C(C(=O)NCc2ccccc2)N(C(=O)c2snc(C(N)=O)c2N)c2ccccc2OC)cc1OC (stereo not drawn),"35.5 µM [falling, single point]",
COc1ccc2cc1Oc1ccc(cc1)C[C@H]1c3cc(c(OC)cc3CCN1C)Oc1c(OC)c(OC)cc3c1[C@H](C2)N(C)CC3,"20 µM [falling, single point]",

SMILES,AC50 [1],AC50 [2]
C/C(N)=C(/C#N)C(=O)CSc1nnnn1-c1ccccc1,"6.31 µM [rising, single point]",
COc1ccc(/C=C2\SC(=S)N(c3cccnc3)C2=O)cc1,"1.78 µM [rising, full curve, poor fit]",
NC(=O)c1nsc(C(=O)N(c2cccc(F)c2)C(C(=O)NCC2CCCO2)c2c[nH]c3ccccc23)c1N (stereo not drawn),"2.82 µM [rising, partial curve]",
CCOC(=O)C1(Cc2ccccc2)CCN(Cc2ccc(COC)o2)CC1,"0.708 µM [falling, full curve]",
Cc1ccc(CN2CC(C(=O)Nc3cc(C)ccn3)CC2=O)cc1 (stereo not drawn),"0.206 µM [falling, full curve, poor fit]",
Cc1cc(=O)[nH]c(Nc2ccccc2C)n1,"39.8 µM [rising, partial curve, poor fit]",
CC(C)OC(=O)NC(C)(C)COC(=O)Nc1cccc(Cl)c1,"4.11 µM [rising, full curve, poor fit]",
CSc1sc(-c2nnc(SCC(=O)Nc3ccccc3)n2C)c2c1C=CCC2,"3.98 µM [rising, full curve, poor fit]",
COc1ccc(C(=O)N/N=C/c2ccccn2)cc1OC,"35.5 µM [falling, single point]",
Cc1c(CC(=O)NCCCCCC(=O)O)c(=O)oc2cc3occ(-c4ccccc4)c3cc12,"10 µM [rising, partial curve]",
CCCc1nn(-c2cc(Cl)ccc2OC)c2c1C(=O)CC(C)(C)C2,"29.1 µM [falling, single point]",
Cc1ccc(CN(c2ccc(C(=O)N3CCc4ccccc4C3)cc2)S(C)(=O)=O)cc1,"13 µM [falling, partial curve, poor fit]",
Cc1onc(-c2ccccc2Cl)c1C(=O)OCC(=O)c1ccc[nH]1,"10.3 µM [rising, partial curve, poor fit]",
Clc1ccc(CSc2ncnc3nc[nH]c23)cc1,"0.651 µM [rising, full curve, poor fit]",
N#Cc1c(NC(=O)CSc2nnc(-c3ccco3)n2-c2ccccc2)sc2c1CCC2,"29.1 µM [falling, single point]","18.4 µM [rising, single point]"
CN1CC2CCCC3(C1)C(=O)NC1(CCCCC1)N=C23 (stereo not drawn),"11.2 µM [falling, partial curve, poor fit]",
Cc1cc(=O)oc2cc(OCC3CC(c4ccccc4Cl)=NO3)ccc12 (stereo not drawn),"5.8 µM [rising, full curve]","4.11 µM [falling, full curve]"
Fc1ccc(COc2ccc(-c3nnco3)cc2)c(Cl)c1,"17.8 µM [rising, partial curve, poor fit]",
COc1ccc(C)cc1NC(=O)Nc1ccc(Br)cn1,"0.0517 µM [rising, full curve, poor fit]",
Cn1nc(-c2ccccc2)c(-c2nc(-c3ccccc3Cl)no2)c1Cl,"3.66 µM [rising, single point]",

# Random excerpt: three compounds from above.
SMILES,AC50 [1],AC50 [2]
COc1ccc(C)cc1NC(=O)Nc1ccc(Br)cn1,"0.0517 µM [rising, full curve, poor fit]",
Cc1cc(=O)oc2cc(OCC3CC(c4ccccc4Cl)=NO3)ccc12 (stereo not drawn),"5.8 µM [rising, full curve]","4.11 µM [falling, full curve]"
Cc1c(CC(=O)NCCCCCC(=O)O)c(=O)oc2cc3occ(-c4ccccc4)c3cc12,"10 µM [rising, partial curve]",
